{
  "source": "paper PMC5805785",
  "about": "“Site-specific phosphorylation of TRANSPARENT TESTA GLABRA1 mediates carbon partitioning in Arabidopsis seeds” (Nature Communications, 2018)",
  "binders": {"B1": {"name": "SHAGGY-like kinases11 (SK11) (protein, UniProt P43288 1-405)", "chain": "MASVGIAPNPGARDSTGVDKLPEEMNDMKIRDDKEMEATVVDGNGTETGHIIVTTIGGRNGQPKQTISYMAERVVGHGSFGVVFQAKCLETGETVAIKKVLQDRRYKNRELQTMRLLDHPNVVSLKHCFFSTTEKDELYLNLVLEYVPETVHRVIKHYNKLNQRMPLIYVKLYTYQIFRALSYIHRCIGVCHRDIKPQNLLVNPHTHQVKLCDFGSAKVLVKGEPNISYICSRYYRAPELIFGATEYTTAIDVWSAGCVLAELLLGQPLFPGESGVDQLVEIIKVLGTPTREEIKCMNPNYTEFKFPQIKAHPWHKIFHKRMPPEAVDLVSRLLQYSPNLRSAALDTLVHPFFDELRDPNARLPNGRFLPPLFNFKPHELKGVPLEMVAKLVPEHARKQCPWLGL"}},
  "molecular_target": "T1, MBP-TTG1 (… TESTA GLABRA1) (Arabidopsis thaliana) (UniProt Q9XGN1)",
  "T1 sequence": "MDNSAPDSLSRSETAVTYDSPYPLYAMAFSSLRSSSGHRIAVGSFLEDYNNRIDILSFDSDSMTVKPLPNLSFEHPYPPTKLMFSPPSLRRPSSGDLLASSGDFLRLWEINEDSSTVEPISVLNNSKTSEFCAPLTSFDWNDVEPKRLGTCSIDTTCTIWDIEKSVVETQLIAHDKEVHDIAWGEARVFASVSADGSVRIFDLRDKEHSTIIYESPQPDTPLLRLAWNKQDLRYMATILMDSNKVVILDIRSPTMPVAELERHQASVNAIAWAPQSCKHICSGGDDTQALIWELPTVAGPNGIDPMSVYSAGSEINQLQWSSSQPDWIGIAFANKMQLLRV",
  "assay": "affinity purification with mass spectrometry; recombinant MBP-TTG1 immobilized onto amylose resin, incubated with total protein extract of Col-0 siliques 4 days after pollination for 3 h at 4 °C; eluate analysed by LC-MS/MS; only the target purified",
  "note": "No constants are given. Whether binding was seen depends on the method and setting. In cells and extracts the contact can be indirect. These calls come from enrichment with a bait or labelling near it, and not all partners need be listed. Tags and fused reporters may be left off the sequences shown.",
  "data": [
    {"binder": "B1", "values": [
      {"measurement": "binding", "value": "binds"}
    ]}
  ]
}
